According to patent US20020035058A1, “Isopentenyl pyrophosphate isomerase (IPI) and/or prenyl transferase inhibitors” (The University of Sheffield, priority 1996, published 2002):

What was measured:
[1] = test system: J774 macrophages; assay: Loss of total cell viability, MTT reduction; type: cell-based; conditions: 100 μM alendronate + 200 μM mevalonic acid lactone
[2] = test system: J774 macrophages; assay: Assessment of apoptosis in J774 macrophages (nuclear morphology, DNA fragmentation); type: cell-based; conditions: 100 μM, 41 h

NCCCC(O)(P(=O)(O)O)P(=O)(O)O [ALENDRONATE, alendronate]
apoptosis and loss of cell viability with mevalonic acid lactone co-incubation [1]: not | proportion of remaining cells apoptotic [2]: about 80%
